± gives the standard deviation of the averaged measurements. The list shows a part of the results. Many values rest on one well or one pass, so single values are uncertain.

The assay relates to RAW 264.7 macrophages infected with S. aureus JE2-lux. In words: host macrophage viability (CellTiter-Fluor) relative to DMSO vehicle; higher = more viable host cells. The conditions noted are these: 10 µM; treatment time 4 h; gentamicin 50 µg/ml.
With `COc1ccc(NC(=S)N2CCC(n3c(C)nc4cc(F)ccc43)CC2)cc1`, the host macrophage viability worked out at 85.8%. The result for `CCc1cc2cc(C)ccc2nc1SCC(=O)NNC(=O)c1ccc(OC)cc1` reads 119%; that for `Cc1nc2ccc(C(=O)NC(c3ccccc3)c3cccnc3)cc2[nH]1` (stereo unspecified), 104%; that for `CCOc1ccccc1-c1nc(Cn2nc(-c3ccc(OC)cc3)c3c(C)onc3c2=O)c(C)o1`, 90.3%. The result for `COc1cccc2sc(NNC(=O)c3cc(-c4cccs4)nc4ccccc34)nc12` reads 126 ± 7.5%. The result for `CC(=O)Nc1ccc(S(=O)(=O)Nc2ccc(O)c3ccccc23)cc1` reads 124%; that for `CC(=O)Cc1nsc(NC(=O)c2cc(-c3ccc(Cl)cc3Cl)oc2C)n1`, 126%; that for `Cc1cc(C)c2nc(NC(=O)c3cccc(C(F)(F)F)c3)sc2c1`, 117%. On to `COc1ccc(-c2nc(OC)c3c4c(sc3n2)CCCC4)cc1`, for which the host macrophage viability turned out to be 118%. The result for `COc1cc2ccccc2cc1C(=O)Nc1ccc2c(c1)C(=O)N(C)C2=O` reads 104%; that for `Cc1oc2c(O)c(O)ccc2c(=O)c1-c1ccccc1`, 116%; that for `COc1cc(/C=N/n2c(C)cc(C)c(C#N)c2=O)ccc1OC(C)=O`, 95.8%. In the case of `Cc1cc(O)nc(SCc2cn3cccnc3n2)n1`, the host macrophage viability stood at 101%. Then `Cc1oc(-c2ccc(F)cc2)nc1C(=O)NC(c1ccccc1)c1cccnc1` (stereo unspecified), with 107%. Turning to `COc1ccc(OC)c2[nH]c(=O)c(CCNC(=O)c3cc4ccccc4oc3=O)cc12`, the host macrophage viability came out at 112%. The result for `COc1ccccc1CCNC(=N)NS(=O)(=O)c1ccc(F)cc1` reads 114%.

`CC(C)Cn1c(=O)c2ccc(C(=O)NC3CCCC3)cc2n2c(=S)[nH]nc12`: the host macrophage viability came to 124%. Then `CCOC(=O)c1ccccc1NC(=O)CSc1ncnc2c1nnn2-c1ccc(C)cc1`, with 112 ± 4.5%.

Take `CN(C)S(=O)(=O)c1ccc2nc(NC(=O)C(c3ccccc3)c3ccccc3)sc2c1`: the host macrophage viability was 119%. The result for `O=C(CN(C(=O)Cn1nnc2ccccc21)c1ccccc1)NCC1CCCO1` (stereo unspecified) reads 112%; that for `Cc1cc(C)c(C#N)c(SCC(=O)Nc2cccc3cccnc23)n1`, 117%; that for `CCOC(=O)N1CCN(C(=O)CSc2ccnc3c2c(=O)n(C)c(=O)n3C)CC1`, 98%. The result for `CSc1ccc(CNC(=O)c2nccn2Cc2ccccc2C)cc1` reads 106%. `COc1ccc(CNC(=O)CSc2nc3[nH]ncc3c(=O)n2-c2ccccc2)cc1`: the host macrophage viability is 116 ± 18%. The result for `CC1CN(C(c2cccs2)c2sc3ncnn3c2O)CC(C)O1` (stereo unspecified) reads 100%. With `Cc1cc(C)n2nc(C(=O)NC(c3ccccc3)c3cccnc3)c(Cl)c2n1` (stereo unspecified), the host macrophage viability stood at 119%. As for `COc1ccc(C)cc1NC(=O)C1CCCN(C(=O)Nc2ccc(F)cc2)C1` (stereo unspecified), the host macrophage viability was 101%.

`COc1ccc(S(=O)(=O)NC(=N)NCCc2ccc(Cl)cc2)cc1OC`: the host macrophage viability was 119%. The result for `O=C(NCc1ccc(F)cc1)C1CCN(c2nc(-c3ccccc3)no2)CC1` reads 114%; that for `CCCCNC(=O)c1cc(-c2ccc(OC)cc2)nc2n[nH]c(-c3ccc(OC)cc3)c12`, 120%; that for `Cc1ccc(N/C=C(\C#N)c2nc(-c3ccc([N+](=O)[O-])cc3)cs2)cc1Cl`, 118 ± 16%. `O=C(CS(=O)(=O)c1ccccc1)Nc1ccc2c(c1)C(=O)NC2=O`: the host macrophage viability was determined as 122%. With `O=C(CCn1cnc2ccccc2c1=O)NC1CCC(=O)NC1c1ccc(F)cc1` (stereo unspecified), the host macrophage viability is 115%. Then `Cc1ccc2onc(CNC(=O)N3CCCC3)c2c1`, with 131%. Then `O=C(OC1CCCCC1)c1cc2cc([N+](=O)[O-])ccc2oc1=O`, with 119%; and `O=C(c1ccc(COc2ccc(F)cc2)o1)n1cccn1`, with 119%; and `CCn1c(=O)c(C)nc2cc(-c3noc(C(NS(=O)(=O)c4ccc(C)cc4)C(C)C)n3)ccc21` (stereo unspecified), with 126%.

On to `O=C(O)c1cnc(N2CCC(N3CCCCC3)CC2)c(NS(=O)(=O)c2ccccc2)c1`, for which the host macrophage viability is 113%. The result for `CC(=O)N1c2ccc(NC(=O)C3(C)CC(=O)N=C4C=C(C)C=CN43)cc2CC1C` (stereo unspecified) reads 113%; that for `COc1cc(-c2nc(=O)[nH]c3ccc(Cl)cc23)cc(OC)c1OC`, 124.3 ± 0.71%. Then `O=C1CC(c2ccccc2OC2CCCC2)c2cnn(-c3nc4ccccc4s3)c2N1` (stereo unspecified), with 135%; and `CC1CCCCN1S(=O)(=O)c1ccc(C(=O)Nc2sc3c(c2C#N)CCC3)cc1` (stereo unspecified), with 139%; and `O=C(CSCc1nc(O)c2nnn(Cc3ccc(F)cc3)c2n1)Nc1ccc2c(c1)OCCO2`, with 98.3%. The result for `Cc1ccc(S(=O)(=O)n2nc(OC(=O)c3ccc(Cl)cc3Cl)cc2N)cc1` reads 108%. Consider `COc1ccc(-c2cc(C(=O)NCC(c3ccccc3Cl)N(C)C)no2)cc1` (stereo unspecified), for which the host macrophage viability was 136%.

For the compound `CCc1cc(=O)[nH]c(Nc2ccc(C)c(Cl)c2)n1`, the host macrophage viability is 120%. The result for `CCOc1ccc(NC(=O)c2cnn3c(=O)c(C)c(C)[nH]c23)cc1` reads 120%.

On to `O=C(NCc1ccccc1Cl)C(=O)NCC(c1ccco1)S(=O)(=O)c1ccccc1` (stereo unspecified), for which the host macrophage viability was 125%. The result for `Cc1ccc(NC(=O)N2CCCC2C(=O)Nc2cccnc2)cc1` (stereo unspecified) reads 117%. On to `Cc1ccc2[nH]c3nc(SCC(=O)Nc4cccc(O)c4)nnc3c2c1`, for which the host macrophage viability worked out at 104%. Then `COc1ccc(CCNc2ncnc3c2c(-c2ccccc2)cn3-c2ccccc2C)cc1`, with 102%.

Regarding `CC(C)Sc1nc2c(c(=O)[nH]1)C(c1ccc(Br)cc1)C1=C(CCCC1=O)N2` (stereo unspecified), the host macrophage viability was determined as 142%. Then `Nc1cc(O)nc(SCc2ccc(C(=O)c3ccccc3)cc2)n1`, with 113%. Then `CCOC(=O)c1cc(C#N)c(SCC(=O)Nc2ccc(C(C)=O)cc2)nc1O`, with 106%. `COc1ccc(NC(=O)CSc2nc(-c3ccccc3)c3ccccc3n2)c(OC)c1`: the host macrophage viability is 110%. The result for `COC(=O)c1ccc2c(=O)[nH]c3c(C(=O)N4CCOCC4)sc(=S)n3c2c1` reads 121%; that for `COCCNC(=O)c1c(O)nc2sccn2c1=O`, 126%; that for `O=C(CN1C(=O)/C(=C/c2cccc(Cl)c2)SC1=S)Nc1ccc2oc(=O)ccc2c1`, 128%. Then `COc1ccc2oc(=O)c(C(=O)Oc3ccc(C(C)=O)cc3OC)cc2c1`, with 116%. Take `O=C(c1ccc2c(c1)OCO2)N1CCc2nc(-c3ccccc3)[nH]c(=O)c2C1`: the host macrophage viability was 105%. The result for `Cc1ccccc1OCCn1cnc2ccccc21` reads 115%. As to `O=C(CSc1nc(-c2ccc(Cl)cc2)cs1)NNC(=O)c1ccco1`, the host macrophage viability was 116%.

`C#CCn1/c(=N/C(=O)c2cc(=O)c3ccccc3o2)sc2cc3c(cc21)OCCO3`: the host macrophage viability came out at 141%. The result for `COc1ccc(N2CCN(CCNc3ncnc4scc(-c5ccc(Cl)cc5)c34)CC2)cc1` reads 124%. Then `CC(=O)c1cccc(NC(=O)c2csc3nc(-c4ccc(F)cc4)cn23)c1`, with 107%; and `COc1ccc(C2CC(=O)Nc3c2c(C)nn3-c2nc3ccccc3[nH]2)cc1Br` (stereo unspecified), with 131%.

(Values after the supplement of paper PMC12578635.)
